The chains behind the UniProt entries cited, without tags or fusion partners. Residues count along the entry.
UniProt Q13255, 19-1194 limits assumed: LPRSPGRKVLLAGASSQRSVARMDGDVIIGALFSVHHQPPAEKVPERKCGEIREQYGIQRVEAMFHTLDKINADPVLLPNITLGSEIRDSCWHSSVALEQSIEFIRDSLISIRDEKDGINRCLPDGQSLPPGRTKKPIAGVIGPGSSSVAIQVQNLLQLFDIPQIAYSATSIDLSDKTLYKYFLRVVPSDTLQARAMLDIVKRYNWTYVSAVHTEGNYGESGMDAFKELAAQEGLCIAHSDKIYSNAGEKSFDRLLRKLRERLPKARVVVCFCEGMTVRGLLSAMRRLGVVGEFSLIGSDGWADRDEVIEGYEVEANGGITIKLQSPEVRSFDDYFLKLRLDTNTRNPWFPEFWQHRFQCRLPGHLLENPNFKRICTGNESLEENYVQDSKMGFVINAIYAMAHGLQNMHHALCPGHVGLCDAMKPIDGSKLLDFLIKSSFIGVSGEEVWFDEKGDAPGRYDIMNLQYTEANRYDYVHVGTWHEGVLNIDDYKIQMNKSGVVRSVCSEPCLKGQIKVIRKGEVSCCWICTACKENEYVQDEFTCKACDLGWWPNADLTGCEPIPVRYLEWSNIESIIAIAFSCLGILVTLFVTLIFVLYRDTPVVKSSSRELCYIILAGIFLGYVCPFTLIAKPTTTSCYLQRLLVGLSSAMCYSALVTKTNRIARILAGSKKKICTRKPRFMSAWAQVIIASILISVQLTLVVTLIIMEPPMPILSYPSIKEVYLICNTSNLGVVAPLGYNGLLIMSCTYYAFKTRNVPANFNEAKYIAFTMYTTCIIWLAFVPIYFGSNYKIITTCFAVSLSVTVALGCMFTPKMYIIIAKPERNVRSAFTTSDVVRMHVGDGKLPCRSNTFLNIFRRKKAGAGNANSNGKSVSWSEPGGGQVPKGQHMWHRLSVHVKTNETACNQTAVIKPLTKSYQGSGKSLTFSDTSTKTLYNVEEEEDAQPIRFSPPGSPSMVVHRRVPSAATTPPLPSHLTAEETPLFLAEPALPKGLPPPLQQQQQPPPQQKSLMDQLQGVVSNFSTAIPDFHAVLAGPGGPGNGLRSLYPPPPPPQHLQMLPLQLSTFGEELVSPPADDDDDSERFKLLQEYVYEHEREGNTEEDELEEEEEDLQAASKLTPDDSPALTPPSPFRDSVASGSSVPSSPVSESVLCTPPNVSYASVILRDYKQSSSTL

In US7989464B2, “mGluR1 antagonists as therapeutic agents” (Schering Corporation, priority 2004, dated 2011):

Each compound was assayed against hmGluR1 receptor (Homo sapiens, UniProt Q13255) (assay: IC50 determination: intracellular calcium mobilization (FLIPR) upon Quisqualate stimulation in CHO cells stably expressing hmGluR1). Conditions: read-out: mGIuR 1 IC50, against Quisqualate 1 μM (EC80), class symbols.
Type: cell-based

| Compound | IC50 |
| --- | --- |
| Cc1ccnc2sc3c(=O)n(C4CCCCC4)cnc3c12 | > 1000 nM |
| CC(C)c1ccnc2sc3c(=O)n(C4CCCCC4)cnc3c12 | < 50 nM |
| O=c1c2sc3nccc(-n4cccc4)c3c2ncn1C1CCCCC1 | 50 to 150 nM |

The match of structure and compound is tentative.
